Our source for the binding values is article PMC5709507.

Amino acid sequences for entries named in this document (tags omitted). A change or cut given only in a name is not applied to a line headed by its entry. Chains listed by the source or under a name are the forms on record and can include a tag or linker.
full-length YAP (YAP2) of mouse cerebellum (mouse (endogenous in cerebellum)) (P46938, form named): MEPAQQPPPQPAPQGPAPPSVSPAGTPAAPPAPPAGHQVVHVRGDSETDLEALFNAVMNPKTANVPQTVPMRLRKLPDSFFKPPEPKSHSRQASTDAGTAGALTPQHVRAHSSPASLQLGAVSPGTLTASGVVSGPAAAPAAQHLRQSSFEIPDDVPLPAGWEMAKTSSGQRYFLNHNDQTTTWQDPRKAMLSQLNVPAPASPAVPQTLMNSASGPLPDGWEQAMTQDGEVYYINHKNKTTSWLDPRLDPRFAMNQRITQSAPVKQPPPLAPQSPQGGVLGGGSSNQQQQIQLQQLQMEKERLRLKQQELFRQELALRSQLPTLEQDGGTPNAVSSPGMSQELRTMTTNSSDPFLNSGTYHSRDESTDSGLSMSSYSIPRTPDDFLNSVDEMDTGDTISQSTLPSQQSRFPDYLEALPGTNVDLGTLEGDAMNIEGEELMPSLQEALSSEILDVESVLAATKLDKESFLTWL

The target in assay [1] is full-length YAP (YAP2) of mouse cerebellum (mouse (endogenous in cerebellum)) (UniProt P46938). The assay is described as follows: co-IP; cerebellar tissue of C57BL/6, Atxn1-KI (No Dox) and Group I mice at P7 and P21; reciprocal precipitation of YAP and RORα.
Assay [2] addresses YAPdeltaC of mouse cerebellum (mouse (endogenous in cerebellum)). Described as above.

These are yes or no findings as the source states them, for the method shown. In cells and extracts the contact can be indirect. Binding calls can cover weak binding; strength is not graded here.

As to “mutant Atxn1 (Atxn1-154Q) of Atxn1-KI (Sca1 154Q/2Q) mice (from UniProt P54254)”, the binding entry in assay [1] is on record as “binds”.

B1: normal Atxn1 of mouse cerebellum (protein, UniProt P54254 1-791)
chain: MKSNQERSNECLPPKKREIPATSRPSEEKATALPSDNHCVEGVAWLPSTPGIRGHGGGRHGSAGTSGEHGLQGMGLHKALSAGLDYSPPSAPRSVPTANTLPTVYPPPQSGTPVSPVQYAHLSHTFQFIGSSQYSGPYAGFIPSQLISPSGNPVTSAVASAAGATTPSQRSQLEAYSTLLANMGSLSQAPGHKVEPPPQQHLSRAAGLVNPGSPPPPTQQNQYIHISSSPQSSGRATSPPPIPVHLHPHQTMIPHTLTLGPSSQVVVQYSDAGGHFVPRESTKKAESSRLQQAMQAKEVLNGEMEKSRRYGASSSVELSLGKASSKSVPHPYESRHVVVHPSPADYSSRDTSGVRGSVMVLPNSSTPSADLEAQQTTHREASPSTLNDKSGLHLGKPGHRSYALSPHTVIQTTHSASEPLPVGLPATAFYAGTQPPVIGYLSGQQQAITYAGGLPQHLVIPGNQPLLIPVGSPDMDTPGAASAIVTSSPQFAAVPHTFVTTALPKSENFNPEALVTQAAYPAMVQAQIHLPVVQSVASPTTASPTLPPYFMKGSIIQLANGELKKVEDLKTEDFIQSAEISNDLKIDSSTVERIEESHSPGVAVIQFAVGEHRAQVSVEVLVEYPFFVFGQGWSSCCPERTSQLFDLPCSKLSVGDVCISLTLKNLKNGSVKKGQPVDPASVLLKQAKTDSLAGSRHRYAEQENGINQGSAQVLSENGELKFPEKIGLPAAPFLSKIEPSKPTATRKRRWSAPETRKLEKSEDEPPLTLPKPSLIPQEVKICIEGRSNVGK
Consider B1, for which, in assay [2], the binding entry was “binds”.
